Results deposited as PubChem BioAssay AID1508588 (Peter MacCallum Cancer Centre, 2020).
Screen: 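Genome-wide search for knock-downs that heighten vemurafenib action in melanoma cells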 (primary screen). Cells: human WM266.4 melanoma cells (BRAF V600 mutant). Reagent: siRNA pool against human genes, 40 nM. Duration: 96 h from transfection to read-out. Challenge: vemurafenib 300 nM (about IC25), added 48 h after transfection, for 48 h; comparison arm got DMSO vehicle only. Detection: 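Cell gain (DAPI nuclei at end minus before drug, mean of two replicates) and medium lactate by absorbance per cell, both as ratio to non-targeting siRNA, also grouped into fold-change classes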. Scale: cell gain with vemurafenib: higher = more cell gain than with non-targeting siRNA; lactate per cell with vemurafenib: higher = more lactate made per cell. Active means: 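a knock-down counts as enhancing when its fold-change classes with vehicle and with vemurafenib, taken together, show a stronger drug effect on cell gain or lactate per cell; exact class pairs not stated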. Calls: active = enhances vemurafenib effect; inactive = no enhancement seen.
Here is one part, drawn at random, of about 18,000 reagents. 790 of them (4.4%) count as active. 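Calls rest on a combination of fold-change classes in drug and vehicle arms, not all shown here.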 Some reagents were tested in more than one well and are listed for each.

no.	gene knocked down	cell gain with vemurafenib	lactate per cell with vemurafenib	outcome
1	CDA (cytidine deaminase)	0.77	0.44	inactive
2	LCE2A (late cornified envelope 2A)	0.61	1.33	inactive
3	EMX2 (empty spiracles homeobox 2)	0.48	0.96	inactive
4	RNLS (renalase, FAD dependent amine oxidase)	1.17	1.21	inactive
5	KIF13B (kinesin family member 13B)	0.86	0.58	inactive
6	FCHSD1 (FCH and double SH3 domains 1)	0.9	0.92	inactive
7	ETS2-AS1 (ETS2 antisense RNA 1)	1.04	0.73	inactive
8	SEC24B (SEC24 homolog B, COPII component)	0.83	0.88	inactive
9	AARSD1 (alanyl-tRNA synthetase domain containing 1)	0.61	0.98	inactive
10	GPRIN1 (G protein regulated inducer of neurite outgrowth 1)	0.69	0.68	inactive
11	CNTN5 (contactin 5)	0.72	0.84	inactive
12	MYL1 (myosin light chain 1)	0.25	1.45	inactive
13	ZCCHC12 (zinc finger CCHC-type containing 12)	0.25	0.56	inactive
14	DNAJC10 (DnaJ heat shock protein family (Hsp40) member C10)	-0.1	1.06	inactive
15	ACER3 (alkaline ceramidase 3)	0.77	0.58	inactive
16	VPS36 (vacuolar protein sorting 36 homolog)	0.66	0.76	inactive
17	CYB561 (cytochrome b561)	0.85	0.64	inactive
18	TMPRSS9 (transmembrane serine protease 9)	1.06	0.6	inactive
19	ADGRG3 (adhesion G protein-coupled receptor G3)	0.61	0.95	inactive
20	DPYSL3 (dihydropyrimidinase like 3)	0.99	0.78	inactive
21	BCKDHB (branched chain keto acid dehydrogenase E1 subunit beta)	0.37	0.5	inactive
22	OTC (ornithine transcarbamylase)	0.93	0.58	inactive
23	CCDC144NL (CCDC144A N-terminal like (pseudogene))	0.77	1.27	inactive
24	LSG1 (large 60S subunit nuclear export GTPase 1)	0.59	1.13	inactive
25	TSPAN9 (tetraspanin 9)	0.84	1.08	inactive
26	CASP14 (caspase 14)	0.71	0.92	inactive
27	TMEM31 (transmembrane protein 31)	1.11	0.36	inactive
28	LEP (leptin)	1.07	0.64	inactive
29	ARX (aristaless related homeobox)	0.62	0.89	inactive
30	SUV39H1 (SUV39H1 histone lysine methyltransferase)	0.51	0.34	inactive
31	FMO2 (flavin containing dimethylaniline monoxygenase 2)	0.78	0.6	inactive
32	IL20 (interleukin 20)	1	0.62	inactive
33	PPP6C (protein phosphatase 6 catalytic subunit)	1.3	1.85	inactive
34	P4HB (prolyl 4-hydroxylase subunit beta)	0.79	1.21	inactive
35	PTH2R (parathyroid hormone 2 receptor)	0.98	0.92	inactive
36	TRUB1 (TruB pseudouridine synthase family member 1)	1.05	0.54	inactive
37	RPL18P4 (ribosomal protein L18 pseudogene 4)	0.24	1.27	inactive
38	RILPL2 (Rab interacting lysosomal protein like 2)	0.66	0.98	inactive
39	MEGF8 (multiple EGF like domains 8)	1.01	0.97	inactive
40	PLD4 (phospholipase D family member 4)	0.69	0.8	inactive
41	SEPTIN3 (septin 3)	0.8	1.08	inactive
42	LCK (LCK proto-oncogene, Src family tyrosine kinase)	0.83	0.61	inactive
43	LCK (LCK proto-oncogene, Src family tyrosine kinase)	0.59	0.64	inactive
44	GLRA3 (glycine receptor alpha 3)	0.51	0.61	inactive
45	GSTZ1 (glutathione S-transferase zeta 1)	0.94	0.59	inactive
46	PRAMEF4 (PRAME family member 4)	0.25	1.82	inactive
47	PTK2 (protein tyrosine kinase 2)	0.18	1	inactive
48	PCYOX1 (prenylcysteine oxidase 1)	0.92	0.73	inactive
49	CCDC171 (coiled-coil domain containing 171)	0.51	1.04	inactive
50	GTF2IRD2B (GTF2I repeat domain containing 2B)	0.71	0.82	inactive
51	MOGS (mannosyl-oligosaccharide glucosidase)	1.33	0.62	inactive
52	PVALB (parvalbumin)	0.27	1.36	inactive
53	RNF145 (ring finger protein 145)	1.09	0.88	inactive
54	TMEM170A (transmembrane protein 170A)	0.36	1.73	inactive
55	PSTPIP1 (proline-serine-threonine phosphatase interacting protein 1)	0.73	1.19	inactive
56	OBP2A (odorant binding protein 2A)	0.46	1.7	inactive
57	CASKIN2 (CASK interacting protein 2)	0.56	1.26	inactive
58	NT5C3A (5'-nucleotidase, cytosolic IIIA)	0.87	0.43	inactive
59	TSHZ2 (teashirt zinc finger homeobox 2)	0.52	1.76	inactive
60	TRAK2 (trafficking kinesin protein 2)	0.38	1.12	inactive
61	ZNF74 (zinc finger protein 74)	0.89	0.96	inactive
62	THOC1 (THO complex subunit 1)	0.49	1.65	inactive
63	CPNE8 (copine 8)	0.93	0.63	inactive
64	GPD1 (glycerol-3-phosphate dehydrogenase 1)	0.73	0.64	inactive
65	TRIM65 (tripartite motif containing 65)	1.37	0.58	inactive
66	PEX14 (peroxisomal biogenesis factor 14)	0.61	0.78	inactive
67	UGT2B28 (UDP glucuronosyltransferase family 2 member B28)	0.59	0.78	inactive
68	HMGCLL1 (3-hydroxy-3-methylglutaryl-CoA lyase like 1)	0.76	1.25	inactive
69	ERO1A (endoplasmic reticulum oxidoreductase 1 alpha)	0.74	1.06	inactive
70	INCA1 (inhibitor of CDK, cyclin A1 interacting protein 1)	0.52	1.12	inactive
71	OFCC1 (orofacial cleft 1 candidate 1 (pseudogene))	0.66	0.57	inactive
72	ADCK1 (aarF domain containing kinase 1)	0.69	1.08	inactive
73	AKAP7 (A-kinase anchoring protein 7)	0.39	1.45	inactive
74	PCDHB12 (protocadherin beta 12)	0.97	0.62	inactive
75	MPP4 (MAGUK p55 scaffold protein 4)	0.73	0.84	inactive
76	MRPL21 (mitochondrial ribosomal protein L21)	0.68	1.39	inactive
77	NT5DC3 (5'-nucleotidase domain containing 3)	0.69	0.54	inactive
78	SERPINA12 (serpin family A member 12)	0.72	1	inactive
79	FGD5 (FYVE, RhoGEF and PH domain containing 5)	0.87	0.9	inactive
80	PDE12 (phosphodiesterase 12)	0.22	0.88	inactive
81	DPP6 (dipeptidyl peptidase like 6)	1.02	0.69	inactive
82	SLC15A3	0.83	0.36	inactive
83	LDAF1 (lipid droplet assembly factor 1)	0.37	1.23	inactive
84	CSF2 (colony stimulating factor 2)	0.84	0.64	inactive
85	TSPAN11 (tetraspanin 11)	0.73	0.71	inactive
86	SEMA3F (semaphorin 3F)	0.04	3.75	inactive
87	ADD2 (adducin 2)	0.58	1.66	inactive
88	SERPING1 (serpin family G member 1)	0.03	1.71	inactive
89	PRDX5 (peroxiredoxin 5)	0.72	0.8	inactive
90	GRK7 (G protein-coupled receptor kinase 7)	0.19	0.5	inactive
91	NME1 (NME/NM23 nucleoside diphosphate kinase 1)	1.1	1.21	inactive
92	FPGS (folylpolyglutamate synthase)	0.71	0.49	active
93	ZNF569 (zinc finger protein 569)	0.59	1.18	inactive
94	SHROOM1 (shroom family member 1)	0.26	1.16	inactive
95	REM2 (RRAD and GEM like GTPase 2)	0.16	1.21	inactive
96	SLC9A6	0.92	0.56	inactive
97	POP7 (POP7 ribonuclease P/MRP subunit)	0.88	0.94	inactive
98	CYP4B1 (cytochrome P450 family 4 subfamily B member 1)	1.05	0.78	inactive
99	SRPX2 (sushi repeat containing protein X-linked 2)	1.07	1.02	inactive
100	ABCC10 (ATP binding cassette subfamily C member 10)	0.26	2.58	inactive
101	TBC1D2 (TBC1 domain family member 2)	0.85	1.09	inactive
102	ALG2 (ALG2 alpha-1,3/1,6-mannosyltransferase)	0.64	0.49	active
103	CARM1 (coactivator associated arginine methyltransferase 1)	0.72	0.54	inactive
104	FAM168B (family with sequence similarity 168 member B)	0.38	1.78	inactive
105	SETBP1 (SET binding protein 1)	0.18	1.25	inactive
106	DUSP13B (dual specificity phosphatase 13B)	0.69	0.44	inactive
107	B3GALT1 (beta-1,3-galactosyltransferase 1)	0.62	1.31	inactive

Targets above whose gene name begins with S or s:
gene knocked down	cell gain with vemurafenib	lactate per cell with vemurafenib	outcome
SEC24B (SEC24 homolog B, COPII component)	0.83	0.88	inactive
SUV39H1 (SUV39H1 histone lysine methyltransferase)	0.51	0.34	inactive
SEPTIN3 (septin 3)	0.8	1.08	inactive
SERPINA12 (serpin family A member 12)	0.72	1	inactive
SLC15A3	0.83	0.36	inactive
SEMA3F (semaphorin 3F)	0.04	3.75	inactive
SERPING1 (serpin family G member 1)	0.03	1.71	inactive
SHROOM1 (shroom family member 1)	0.26	1.16	inactive
SLC9A6	0.92	0.56	inactive
SRPX2 (sushi repeat containing protein X-linked 2)	1.07	1.02	inactive
SETBP1 (SET binding protein 1)	0.18	1.25	inactive
